PubChem BioAssay AID602196 – INSERM, 2012

Assay: 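Genes whose knock-down alters cisplatin killing of lung cancer cells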
Cell system: human A549 lung cancer cells
Knock-down reagent: siRNA pair against human genes
Timing: 48 h transfection before cisplatin; time from cisplatin to read-out not stated
Treatment: cisplatin at a dose killing half of control-siRNA cells; exact dose and duration not given
Measurement: 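Shift in cisplatin death relative to control siRNA, from -50 (all cells die) to +50 (no cells die); siRNAs harmful on their own scored 0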
Scale: two-siRNA summed score (-2 to +2): higher = both siRNAs protect from cisplatin killing; -2 means both sensitise; mean protection from cisplatin (shift in death) and protection from cisplatin (shift in death), siRNA C and protection from cisplatin (shift in death), siRNA D: higher = protection from cisplatin killing
Active means: 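Each siRNA scores 0 if harmful alone by LDH or WST-1, otherwise +1 if it reduces and -1 if it increases cisplatin killing; a gene is active when both siRNAs agree (sum +2 or -2)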
Meaning of the calls: active = both siRNAs shift cisplatin killing the same way; inactive = no consistent shift, or siRNA harmful alone
This is an unselected part of about 23,000 deposited reagents. In the full data, 455 (2%) got an active call. 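Active includes both protection and sensitisation; some change values fall well beyond the stated -50 to +50 range.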 Entries without a mark were called inactive. Reagents against one gene are numbered here. The record does not give: the amount of reagent.

| two-siRNA summed score (-2 to +2) | mean protection from cisplatin (shift in death) (%) | protection from cisplatin (shift in death), siRNA C (%) | protection from cisplatin (shift in death), siRNA D (%) | gene | reagent |
| --- | --- | --- | --- | --- | --- |
| 0 | -1.4 | -14.5 | 11.7 | FBXO39 (GeneID 162517) | 1 |
| 0 | 9.2 | 16.9 | 1.4 | CAGE1 (GeneID 285782) | 1 |
| 0 | 5.2 | 8.4 | 1.9 | INPPL1 (GeneID 3636) | 1 |
| 0 | 13.5 | 7.2 | 19.8 | VSX1 (GeneID 30813) | 1 |
| 0 | 13.9 | 18.5 | 9.2 | CDY2A (GeneID 9426) | 1 |
| 0 | -12.5 | -18.5 | -6.5 | MSX1 (GeneID 4487) | 1 |
| 0 | 5.5 | -5 | 16.1 | NOXA1 (GeneID 10811) | 1 |
| 0 | 8.6 | 17.6 | -0.4 | H3C2 (GeneID 8358) | 1 |
| 0 | 0.1 | 6.4 | -6.3 | DDX43 (GeneID 55510) | 1 |
| 0 | 9.4 | 20 | -1.1 | DHPS (GeneID 1725) | 1 |
| -1 | -15.1 | -17.9 | -12.4 | GLRB (GeneID 2743) | 1 |
| 0 | 5 | 4.2 | 5.8 | TTR (GeneID 7276) | 1 |
| 0 | 0.4 | -17.8 | 18.6 | EMID1 (GeneID 129080) | 1 |
| 1 | -4 | 7.8 | -15.8 | PIK3R5 (GeneID 23533) | 1 |
| 0 | 0 | 3.2 | -3.3 | LOC390007 | 1 |
| 0 | -2.3 | 4.9 | -9.5 | MEMO1 (GeneID 51072) | 1 |
| 0 | 12.3 | 15.3 | 9.3 | SGSM1 (GeneID 129049) | 1 |
| 0 | 5.9 | 5.4 | 6.4 | MKX (GeneID 283078) | 1 |
| 0 | 16.2 | 1.3 | 31.2 | LOC441876 | 1 |
| -1 | -27.6 | -32.6 | -22.5 | PCSK1N (GeneID 27344) | 1 |
| 0 | 4 | 7.6 | 0.5 | RPL31P8 (GeneID 253013) | 1 |
| 0 | -3.2 | -0.7 | -5.7 | PSMD10 (GeneID 5716) | 1 |
| 0 | -0.3 | -19.1 | 18.5 | NEU2 (GeneID 4759) | 1 |
| 1 | 15.3 | 21.5 | 9.2 | OR4S2 (GeneID 219431) | 1 |
| 0 | -4.6 | -10.4 | 1.2 | MEPCE (GeneID 56257) | 1 |
| 0 | 5.3 | 12.3 | -1.6 | SVOP (GeneID 55530) | 1 |
| 0 | -0.3 | 4.2 | -4.7 | LOC440496 | 1 |
| -1 | -7.8 | 1.9 | -17.4 | WDR12 (GeneID 55759) | 1 |
| 1 | 6.2 | 13.3 | -0.8 | LOC440194 | 1 |
| 0 | 7.1 | 8.3 | 6 | NDUFS3 (GeneID 4722) | 1 |
| 0 | 7.6 | 5.1 | 10.1 | DLK2 (GeneID 65989) | 1 |
| 0 | 9.6 | 9.9 | 9.4 | DACH2 (GeneID 117154) | 1 |
| 0 | -5.6 | -9.9 | -1.3 | ADCY1 (GeneID 107) | 1 |
| 0 | -0.6 | 11.8 | -12.9 | PLEKHA7 (GeneID 144100) | 1 |
| 0 | 7.3 | 0.6 | 14.1 | PLEKHA7 (GeneID 144100) | 2 |
| 0 | -3.4 | 2.8 | -9.7 | MRGPRX2 (GeneID 117194) | 1 |
| -1 | -3.6 | 8.4 | -15.5 | LOC340156 | 1 |
| 1 | 20.1 | 13.3 | 26.9 | LOC390352 | 1 |
| 1 | 18.9 | 21.3 | 16.5 | PSMD6 (GeneID 9861) | 1 |
| 0 | -1.4 | -11.2 | 8.4 | RGS22 (GeneID 26166) | 1 |
| 1 | 9.3 | -2.2 | 20.9 | ADD3 (GeneID 120) | 1 |
| 1 | 13.4 | 9.3 | 17.6 | USP12 (GeneID 219333) | 1 |
| 0 | 10.6 | 17.6 | 3.5 | CCDC146 (GeneID 57639) | 1 |
| 0 | 3.4 | 12 | -5.3 | INHBA (GeneID 3624) | 1 |
| 0 | -3 | -6.2 | 0.1 | SLCO4C1 (GeneID 353189) | 1 |
| 0 | 2.8 | -5.1 | 10.8 | LOC340204 | 1 |
| 0 | 9 | 5.8 | 12.3 | LOC441071 | 1 |
| -1 | -8.7 | -2.6 | -14.9 | G0S2 (GeneID 50486) | 1 |
| 0 | -6 | -10 | -2 | SNRPA (GeneID 6626) | 1 |
| 1 | 8.8 | 23 | -5.4 | LOC401704 | 1 |
| 1 | 8.5 | 0.4 | 16.5 | CCDC59 (GeneID 29080) | 1 |
| 1 | 9.3 | 12.1 | 6.5 | ARNT (GeneID 405) | 1 |
| 0 | 4 | 13.4 | -5.3 | BBS5 (GeneID 129880) | 1 |
| 0 | 0.6 | 13.8 | -12.7 | COQ10A (GeneID 93058) | 1 |
| -1 | -15.6 | -9.1 | -22 | ARMC9 (GeneID 80210) | 1 |
| 1 | 16 | 20.8 | 11.3 | LOC442670 | 1 |
| 1 | 11.7 | 7.9 | 15.5 | NIBAN3 (GeneID 199786) | 1 |
| 0 | 24.6 | 37.6 | 11.6 | RGS3 (GeneID 5998) | 1 |
| 0 | 6.4 | 11.3 | 1.4 | PDCL2 (GeneID 132954) | 1 |
| 1 | 19.9 | 26.8 | 13 | LOC441853 | 1 |
| 0 | 5.7 | 8.9 | 2.4 | NCDN (GeneID 23154) | 1 |
| 1 | 9.6 | 6.7 | 12.5 | LOC399763 | 1 |
| 0 | 1.7 | 4 | -0.6 | PPP1R27 (GeneID 116729) | 1 |
| -1 | -3.4 | 12.4 | -19.2 | CCR8 (GeneID 1237) | 1 |
| 0 | 7.5 | 0.5 | 14.5 | RP11-19J3.3 | 1 |
| 0 | 13.6 | 17.8 | 9.4 | MEOX2 (GeneID 4223) | 1 |
| 0 | 1 | -6.3 | 8.4 | E2F6 (GeneID 1876) | 1 |
| 0 | 5.6 | 4.3 | 7 | LOC401905 | 1 |
| 0 | 6.9 | 6.4 | 7.4 | TOP2B (GeneID 7155) | 1 |
| 1 | 3.7 | 16.4 | -9 | ZNF672 (GeneID 79894) | 1 |
| 1 | 12.9 | 5.4 | 20.4 | KLHL17 (GeneID 339451) | 1 |
| 0 | -0.9 | -2.4 | 0.6 | VPS13C (GeneID 54832) | 1 |
| 0 | 3.8 | 5.7 | 1.9 | VPS13C (GeneID 54832) | 2 |

Copied from the list.
MRGPRX2 (GeneID 117194), two-siRNA summed score (-2 to +2) = 0
Result for LOC340204 in “two-siRNA summed score (-2 to +2)”: 0
TTR (GeneID 7276), two-siRNA summed score (-2 to +2) → 0
LOC440194, two-siRNA summed score (-2 to +2) → 1
RGS3 (GeneID 5998), protection from cisplatin (shift in death), siRNA C (%) → 37.6
PLEKHA7 (GeneID 144100) #1, protection from cisplatin (shift in death), siRNA D (%) → -12.9
